Test results published in paper doi:10.1101/2021.12.16.472961.
No constants are given. Whether binding was seen depends on the method and setting. In cells and extracts the contact can be indirect. Some results given as binding are weak or reduced against the parent protein; the word gives no strength.

The chains behind the UniProt entries cited, without tags or fusion partners.
UniProt Q6KC79: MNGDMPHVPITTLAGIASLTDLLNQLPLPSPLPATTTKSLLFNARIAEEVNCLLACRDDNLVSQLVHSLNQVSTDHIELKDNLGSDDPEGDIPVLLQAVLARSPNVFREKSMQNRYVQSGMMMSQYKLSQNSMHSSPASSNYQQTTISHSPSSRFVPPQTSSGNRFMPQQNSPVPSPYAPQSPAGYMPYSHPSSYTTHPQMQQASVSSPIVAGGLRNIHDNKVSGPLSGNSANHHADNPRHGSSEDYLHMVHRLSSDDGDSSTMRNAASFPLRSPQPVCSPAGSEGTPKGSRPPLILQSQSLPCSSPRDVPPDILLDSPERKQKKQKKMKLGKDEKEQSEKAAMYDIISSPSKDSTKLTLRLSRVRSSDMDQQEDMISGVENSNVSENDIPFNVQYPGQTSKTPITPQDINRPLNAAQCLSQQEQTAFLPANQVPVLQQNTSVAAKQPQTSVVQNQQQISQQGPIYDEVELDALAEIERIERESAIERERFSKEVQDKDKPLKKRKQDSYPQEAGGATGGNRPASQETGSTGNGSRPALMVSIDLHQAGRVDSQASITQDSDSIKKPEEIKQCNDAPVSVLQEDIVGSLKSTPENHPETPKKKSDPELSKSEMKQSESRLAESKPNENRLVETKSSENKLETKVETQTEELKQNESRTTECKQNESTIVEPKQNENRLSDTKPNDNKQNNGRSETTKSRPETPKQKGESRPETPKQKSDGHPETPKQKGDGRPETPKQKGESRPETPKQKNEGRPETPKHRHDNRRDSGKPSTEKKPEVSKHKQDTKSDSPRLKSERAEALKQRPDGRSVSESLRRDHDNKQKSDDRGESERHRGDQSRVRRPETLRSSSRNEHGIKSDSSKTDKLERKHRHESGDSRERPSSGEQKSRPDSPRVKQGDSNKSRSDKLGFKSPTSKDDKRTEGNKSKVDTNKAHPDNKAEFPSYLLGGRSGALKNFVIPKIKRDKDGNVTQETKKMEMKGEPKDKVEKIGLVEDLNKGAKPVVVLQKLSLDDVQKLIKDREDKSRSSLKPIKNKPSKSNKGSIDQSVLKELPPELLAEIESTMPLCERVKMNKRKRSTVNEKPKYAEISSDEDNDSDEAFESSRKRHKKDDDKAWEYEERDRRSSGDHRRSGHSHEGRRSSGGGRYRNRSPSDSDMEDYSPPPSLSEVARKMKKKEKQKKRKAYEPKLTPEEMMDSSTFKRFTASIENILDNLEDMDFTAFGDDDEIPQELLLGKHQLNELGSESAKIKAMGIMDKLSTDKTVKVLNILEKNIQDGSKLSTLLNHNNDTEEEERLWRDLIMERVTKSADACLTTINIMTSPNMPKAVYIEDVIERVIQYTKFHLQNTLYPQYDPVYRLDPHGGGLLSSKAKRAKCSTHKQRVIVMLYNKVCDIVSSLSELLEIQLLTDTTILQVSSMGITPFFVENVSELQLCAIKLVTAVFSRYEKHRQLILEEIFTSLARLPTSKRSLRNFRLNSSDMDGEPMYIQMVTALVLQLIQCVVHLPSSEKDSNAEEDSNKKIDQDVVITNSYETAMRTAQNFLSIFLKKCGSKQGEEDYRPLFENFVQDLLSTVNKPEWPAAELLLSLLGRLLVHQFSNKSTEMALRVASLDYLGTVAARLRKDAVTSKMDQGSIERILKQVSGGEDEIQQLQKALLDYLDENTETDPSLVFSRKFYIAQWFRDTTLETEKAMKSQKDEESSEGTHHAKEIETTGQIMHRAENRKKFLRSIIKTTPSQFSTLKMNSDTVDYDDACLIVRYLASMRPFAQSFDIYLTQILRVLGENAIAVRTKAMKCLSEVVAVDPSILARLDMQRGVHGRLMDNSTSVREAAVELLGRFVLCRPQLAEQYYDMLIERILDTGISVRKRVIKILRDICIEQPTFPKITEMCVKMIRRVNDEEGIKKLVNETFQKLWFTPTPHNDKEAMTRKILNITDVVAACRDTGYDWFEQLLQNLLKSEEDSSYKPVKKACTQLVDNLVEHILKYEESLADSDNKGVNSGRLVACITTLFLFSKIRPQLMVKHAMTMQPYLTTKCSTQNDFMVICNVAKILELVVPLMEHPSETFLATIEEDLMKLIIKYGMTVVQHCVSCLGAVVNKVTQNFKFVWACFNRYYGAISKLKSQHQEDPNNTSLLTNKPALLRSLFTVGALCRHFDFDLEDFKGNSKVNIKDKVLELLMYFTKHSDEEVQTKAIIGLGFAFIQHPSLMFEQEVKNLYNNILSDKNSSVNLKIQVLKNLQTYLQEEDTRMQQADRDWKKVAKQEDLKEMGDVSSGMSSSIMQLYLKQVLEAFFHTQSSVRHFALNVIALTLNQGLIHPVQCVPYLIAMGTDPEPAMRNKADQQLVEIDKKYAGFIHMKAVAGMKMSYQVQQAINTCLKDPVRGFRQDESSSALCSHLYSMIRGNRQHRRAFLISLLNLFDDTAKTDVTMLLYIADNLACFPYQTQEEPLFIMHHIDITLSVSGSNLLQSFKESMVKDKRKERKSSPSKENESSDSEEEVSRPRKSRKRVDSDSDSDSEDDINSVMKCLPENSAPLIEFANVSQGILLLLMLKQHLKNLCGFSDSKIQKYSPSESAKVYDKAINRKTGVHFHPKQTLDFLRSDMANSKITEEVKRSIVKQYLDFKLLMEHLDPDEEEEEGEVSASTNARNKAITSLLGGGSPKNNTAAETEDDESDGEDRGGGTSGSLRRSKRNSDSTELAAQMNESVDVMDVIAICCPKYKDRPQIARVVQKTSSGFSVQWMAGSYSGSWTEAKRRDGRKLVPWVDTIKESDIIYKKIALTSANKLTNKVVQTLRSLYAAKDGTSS
UniProt Q9BZ95: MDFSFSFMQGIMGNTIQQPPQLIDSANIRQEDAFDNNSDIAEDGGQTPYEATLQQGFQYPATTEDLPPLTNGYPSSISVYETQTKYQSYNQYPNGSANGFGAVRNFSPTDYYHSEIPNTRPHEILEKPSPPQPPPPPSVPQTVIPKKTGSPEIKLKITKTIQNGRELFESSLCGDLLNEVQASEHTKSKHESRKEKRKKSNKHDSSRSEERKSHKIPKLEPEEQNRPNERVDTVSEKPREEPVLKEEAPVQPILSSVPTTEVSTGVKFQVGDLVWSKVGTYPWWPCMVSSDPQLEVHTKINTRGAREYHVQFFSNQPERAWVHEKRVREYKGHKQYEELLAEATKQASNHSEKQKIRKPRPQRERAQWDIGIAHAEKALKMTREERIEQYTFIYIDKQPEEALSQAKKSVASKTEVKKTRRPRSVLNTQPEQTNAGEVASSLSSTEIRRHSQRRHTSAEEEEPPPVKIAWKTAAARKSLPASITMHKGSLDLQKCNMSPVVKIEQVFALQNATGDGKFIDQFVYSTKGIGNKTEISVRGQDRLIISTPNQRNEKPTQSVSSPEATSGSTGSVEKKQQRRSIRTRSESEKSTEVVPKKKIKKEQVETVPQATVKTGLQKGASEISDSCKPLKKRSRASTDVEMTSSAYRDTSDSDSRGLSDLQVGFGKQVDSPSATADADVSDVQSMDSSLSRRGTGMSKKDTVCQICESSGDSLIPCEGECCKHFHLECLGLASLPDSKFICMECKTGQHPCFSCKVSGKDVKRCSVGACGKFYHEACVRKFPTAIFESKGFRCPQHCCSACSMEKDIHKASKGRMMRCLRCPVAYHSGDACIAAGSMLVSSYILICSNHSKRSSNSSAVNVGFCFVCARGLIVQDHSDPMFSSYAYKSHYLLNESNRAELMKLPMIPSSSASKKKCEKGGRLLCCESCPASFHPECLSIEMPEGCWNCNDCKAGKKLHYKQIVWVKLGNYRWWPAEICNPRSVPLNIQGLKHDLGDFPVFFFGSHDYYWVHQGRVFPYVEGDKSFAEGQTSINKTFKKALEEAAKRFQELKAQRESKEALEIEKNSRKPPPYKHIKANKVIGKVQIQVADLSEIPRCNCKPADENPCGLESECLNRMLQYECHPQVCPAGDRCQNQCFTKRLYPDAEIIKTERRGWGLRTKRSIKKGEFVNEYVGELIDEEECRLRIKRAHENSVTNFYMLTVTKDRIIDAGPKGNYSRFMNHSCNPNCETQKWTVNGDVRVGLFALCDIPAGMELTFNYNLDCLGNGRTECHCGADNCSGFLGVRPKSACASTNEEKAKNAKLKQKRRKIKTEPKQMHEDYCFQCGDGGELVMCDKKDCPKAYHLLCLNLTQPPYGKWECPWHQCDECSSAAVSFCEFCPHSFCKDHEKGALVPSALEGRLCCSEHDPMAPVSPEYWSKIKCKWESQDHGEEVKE

Experiments:
Assay in all cases: co-IP
[1] = biological target: Nipped-B-like protein, endogenous (human (endogenous in HeLa)) (UniProt Q6KC79)
[2] = biological target: EmGFP-NSD3-L (full-length NSD3 long isoform fused to a LAP tag: FLAG followed by EmGFP) (human) (UniProt Q9BZ95)
[3] = biological target: NSD3 (histone-lysine N-methyltransferase NSD3), endogenous (human (endogenous in HeLa)) (UniProt Q9BZ95)

binding [1]	binding [2]	binding [3]	Molecule
binds			NSD3 (histone-lysine N-methyltransferase NSD3), endogenous (from UniProt Q9BZ95 1-1437)
	binds	binds	Nipped-B-like protein, endogenous (from UniProt Q6KC79 1-2804)
binds	binds	binds	MAU2 sister chromatid cohesion factor, endogenous (protein, UniProt Q9Y6X3 1-613) MAAQAAAAAQAAAAQAAQAEAADSWYLALLGFAEHFRTSSPPKIRLCVHCLQAVFPFKPPQRIEARTHLQLGSVLYHHTKNSEQARSHLEKAWLISQQIPQFEDVKFEAASLLSELYCQENSVDAAKPLLRKAIQISQQTPYWHCRLLFQLAQLHTLEKDLVSACDLLGVGAEYARVVGSEYTRALFLLSKGMLLLMERKLQEVHPLLTLCGQIVENWQGNPIQKESLRVFFLVLQVTHYLDAGQVKSVKPCLKQLQQCIQTISTLHDDEILPSNPADLFHWLPKEHMCVLVYLVTVMHSMQAGYLEKAQKYTDKALMQLEKLKMLDCSPILSSFQVILLEHIIMCRLVTGHKATALQEISQVCQLCQQSPRLFSNHAAQLHTLLGLYCVSVNCMDNAEAQFTTALRLTNHQELWAFIVTNLASVYIREGNRHQEVLYSLLERINPDHSFPVSSHCLRAAAFYVRGLFSFFQGRYNEAKRFLRETLKMSNAEDLNRLTACSLVLLGHIFYVLGNHRESNNMVVPAMQLASKIPDMSVQLWSSALLRDLNKACGNAMDAHEAAQMHQNFSQQLLQDHIEACSLPEHNLITWTDGPPPVQFQAQNGPNTSLASLL
